Reference: the supplement of paper PMC4683952
Some of the results follow. Cut-off read from the data, not from the text of the source: active = 2 or more and inactive = the rest. Repeats in this data set agree poorly, so a single value says little.

What follows are compounds tested on Lgr5 (MarsCy1-Lgr5-EGFP, U2OS) (assay: cell-surface Lgr5 expression (SCi1 fluorescence, background-subtracted) relative to WT DMSO (fold of DMSO control); higher = more Lgr5 at the plasma membrane). Conditions: U2OS MarsCy1-Lgr5-EGFP stable; treatment time: overnight; library: ActiProbe-5K (TimTec); 25 µM.

Row | SMILES | cell-surface Lgr5 expression
1 | Fc1cccc(Cl)c1C1Nc2cccc3cccc(c23)N1 | inactive: 0.771
2 | CC(C)c1ccc2c(c1)c1c3n2CCNC3CCC1 (centres undefined) | inactive: 1.85
3 | OCCCc1nc2ccccc2[nH]1 | active: 3.1
4 | CC12CC3CC(C)(C1)CC(CC(=O)N1CCN(S(C)(=O)=O)CC1)(C3)C2 | inactive: 1.16
5 | Cc1ccc(C2C(C#N)=C(N)Oc3[nH]nc(C(C)(C)C)c32)s1 (centres undefined) | inactive: 1.23
6 | O=C(Cc1cccs1)NC1CCCC1 | inactive: 1.04
7 | CCCCNC(=O)n1cc(Cl)cn1 | inactive: 1.34
8 | Cl.N=C(N)NC(=N)N1CCOCC1 | inactive: 1.38
9 | Brc1ccc2c(c1)sc1cc(Br)ccc12 | inactive: 1.25
10 | Nc1cc(-c2ccccc2)c2ccccc2n1 | inactive: 1.1
11 | c1ccc2cc(-n3cccc3)ccc2c1 | inactive: 1.09
12 | CC(=O)c1onc(C(N)=O)c1N | inactive: 0.952
13 | c1ccc(N(c2ccccc2)c2nc(-n3ccnc3)nc(-n3ccnc3)n2)cc1 | inactive: 1.05
14 | Cc1cc(C)n(CNc2nc3c(s2)C(=O)CC(C)(C)C3)n1 | inactive: 0.937
15 | O=[N+]([O-])c1ccc2nc(CSc3nc4ccc(Br)cc4[nH]3)[nH]c2c1 | inactive: 0.876
16 | Cn1nc(C(=O)O)c(Br)c1[N+](=O)[O-] | inactive: 0.96
17 | O=C(NCc1ccco1)c1scc2c1OCCO2 | inactive: 0.833
18 | Nc1nc(-c2sc3nc4c(cc3c2N)CCCC4)nc(N2CCOCC2)n1 | inactive: 1.51
19 | COc1ccc(S(=O)(=O)[O-])c2ccccc12 | inactive: 1.17
20 | c1ccc(-c2nc(Sc3nc(-c4ccccc4)nc4ccccc34)c3ccccc3n2)cc1 | inactive: 1.06
21 | Cc1ccc(-c2nnc(S)n2/N=C\c2ccc(C(C)C)cc2)cc1 | inactive: 1.32
22 | Cc1ccc(C2C(C#N)=C(N)Oc3cc(C)oc(=O)c32)o1 (centres undefined) | inactive: 0.971
23 | S=C1COC(c2ccc(Br)cc2)N1c1ccccc1 (centres undefined) | inactive: 1.24
24 | Oc1cc(O)c2sc3nc(-c4ccccc4)ccc3c2n1 | inactive: 1.12
25 | S(CC12[C@@]([C@@H](CC2)CC1=O)(C)C)(=O)(=O)N | inactive: 1.16
26 | Cc1[nH]c2ccc(F)cc2c(=O)c1SC(F)(F)C(F)F | inactive: 1.07
27 | CN1c2cnc(N)nc2-c2sccc2S1(=O)=O | inactive: 1.5

Row | SMILES | cell-surface Lgr5 expression
28 | Cc1sc(/N=C\c2ccc(Br)s2)c(C(N)=O)c1C | inactive: 1.59
29 | COc1cc(OC)c(OC)cc1/C=N/n1c(S)nnc1-c1cc(OC)c(OC)c(OC)c1 | inactive: 1.12
30 | COC(=O)c1c(NC(=O)C(F)(F)F)sc2c1C(C(=O)OC)CC2 (centres undefined) | inactive: 1.24
31 | O=S(=O)(NCCCO)c1ccc2c(c1)Cc1cc(S(=O)(=O)NCCCO)ccc1-2 | inactive: 1.05
32 | C(=N/N=C(c1ccccc1)c1ccccc1)/c1ccc2c(c1)OCO2 | inactive: 1.29
33 | CCn1cc(Cn2nc(C)c(N)c2C)c(C)n1 | inactive: 1.24
34 | CC(C)(C)c1[nH]nc2c1C(c1ccc(Cl)s1)C(C#N)=C(N)O2 (centres undefined) | inactive: 1.24
35 | Cc1scc(CO)c1C | inactive: 1.29
36 | c1(c(c(COCC)c(cc1C)C)C)/C=C(/C#N)C#N | inactive: 1.15
37 | O=C(/C=C/n1c(=S)oc2ccccc21)c1ccccc1 | inactive: 0.467
38 | CCCOc1nccc2c1n(C)c(=O)n2C | inactive: 1.05
39 | COC(=O)/C(C#N)=C/c1ccc([N+](=O)[O-])o1 | inactive: 1.87
40 | c1ccc(NC(/N=S(\c2ccccc2)c2ccccc2)=S)cc1 | inactive: 1.44
41 | Cn1c(=O)c2c(nc(N3CCCC3)n2C)n(C)c1=O | inactive: 0.968
42 | CC1(C)Nc2sc3c(c2-c2nnnn21)CCCC3 | inactive: 1.46
43 | c1(/c(nc2ccccc2nc1C)C)=N\OCc1ccc(cc1)C | inactive: 0.996
44 | CCN(CC)CCCNCC(=O)NC1(C)C2CCC(C2)C1(C)C (centres undefined) | inactive: 1.54
45 | CSc1nc2ccccc2[nH]c1=O | inactive: 1.06
46 | CC1(C)Cc2ccccc2/C(=C/c2ccc3ccccc3n2)N1 | inactive: 1.09
47 | O=C(Cn1nc(C(F)(F)F)c(Cl)c1C1CC1)N1CCN2CCCC2C1 (centres undefined) | inactive: 1.27
48 | S=c1[nH]nc(-c2cccc(Br)c2)[nH]1 | inactive: 1.16
49 | COc1cc2c3c(ccc2c(OC)c1OC)-c1[nH]ncc1CC3 | inactive: 0.895
50 | FC(F)(F)c1nnc2ccc(N3CCCCCC3)nn12 | inactive: 1.12
51 | Cc1n[nH]c(C)c1Br | inactive: 1.23
52 | O=[N+]([O-])c1ccc(F)c(/N=C\c2ccc([N+](=O)[O-])o2)c1 | active: 2.23
53 | Cc1ccc2c(c1)-c1c(ss/c1=N/c1cc(Cl)ccc1Cl)C(C)(C)N2 | inactive: 1.13
54 | O=C(NC1C2CC3CC(C2)CC1C3)c1ccc(=O)[nH]n1 (centres undefined) | inactive: 1.16

12 of the compounds above, with tabs.
Row	SMILES	cell-surface Lgr5 expression
29	COc1cc(OC)c(OC)cc1/C=N/n1c(S)nnc1-c1cc(OC)c(OC)c(OC)c1	inactive: 1.12
30	COC(=O)c1c(NC(=O)C(F)(F)F)sc2c1C(C(=O)OC)CC2 (centres undefined)	inactive: 1.24
31	O=S(=O)(NCCCO)c1ccc2c(c1)Cc1cc(S(=O)(=O)NCCCO)ccc1-2	inactive: 1.05
32	C(=N/N=C(c1ccccc1)c1ccccc1)/c1ccc2c(c1)OCO2	inactive: 1.29
33	CCn1cc(Cn2nc(C)c(N)c2C)c(C)n1	inactive: 1.24
38	CCCOc1nccc2c1n(C)c(=O)n2C	inactive: 1.05
42	CC1(C)Nc2sc3c(c2-c2nnnn21)CCCC3	inactive: 1.46
44	CCN(CC)CCCNCC(=O)NC1(C)C2CCC(C2)C1(C)C (centres undefined)	inactive: 1.54
47	O=C(Cn1nc(C(F)(F)F)c(Cl)c1C1CC1)N1CCN2CCCC2C1 (centres undefined)	inactive: 1.27
51	Cc1n[nH]c(C)c1Br	inactive: 1.23
53	Cc1ccc2c(c1)-c1c(ss/c1=N/c1cc(Cl)ccc1Cl)C(C)(C)N2	inactive: 1.13
54	O=C(NC1C2CC3CC(C2)CC1C3)c1ccc(=O)[nH]n1 (centres undefined)	inactive: 1.16
